Measurements reported in patent US10835513B2, “Methods and treatments for the learning and memory deficits associated with Noonan syndrome” (The Regents of the University of California, priority 2013, dated 2020).
At least one structure is not confirmed: it was looked up by name or label, or the drawing left a doubt.

Tests used:
[1] = tested on: Erk; assay: p-Erk immunoblot of hippocampus after SL327 treatment; type: in vivo, mice
[2] = tested on: pyramidal neurons of Ptpn11^D61G/+ mice; assay: Whole-cell voltage clamp mEPSC recordings in Ptpn11^D61G/+ mice; type: cell-based; conditions: WT and Ptpn11^D61G/+ groups, vehicle or SL327 1 μM
Protocol: (§1) FIG. 4 are graphs showing PTPN11^D61G overexpression enhances excitatory synaptic function through increased Ras-Erk signaling. Panel a) AMPA receptor-mediated currents were measured at the peak of the currents at −65 mV, and NMDA currents were measured 50 ms after onset at +40 mV. The average of 15 traces is shown. Scale, 100 pA and 40 ms. Panel b) Group data showing the increased AMPA:NMDA current ratio in AAV-PTPN11^D61G mice (1.51±0.11, n=10 cells from 5 mice) compared with AAV-GFP mice (0.96±0.05, n=10 cells from 5 mice, t-test, ***P<0.001). […] Two-way ANOVA, interaction between viral treatment and drug, F(1, 31)=10.53, **P<0.01. […] Panel c) Paired-pulse facilitation ratio is unaffected by PTPN11^D61G. There was no significant difference at 25 ms or 50 ms intervals between two groups (AAV-PTPN11^D61G, n=12 cells from 5 mice; AAV-GFP, n=11 cells from 5 mice). Repeated-measures ANOVA, F(1, 21)=0.010, P=0.921. […]
(§2) Whole-cell voltage clamp recordings were done with an Axopatch 200B amplifier (Axon Instrument) as previously described^29, 30. […] For mEPSC recordings, voltage clamp recordings were performed at −60 mV in the presence of 100 μM picrotoxin and 1 μM TTX. mIPSCs were measured at +10 mV in the presence of 1 mM kynurenic acid and 1 μM TTX. […]

[3] = tested on: Pyramidal neurons in CA1; assay: Whole-cell voltage clamp recordings (AMPA:NMDA ratio, mEPSC) in AAV-PTPN11^D61G-infected hippocampi; type: cell-based, mice; conditions: AAV-GFP and AAV-PTPN11^D61G groups, vehicle or SL327 1 μM
Protocol: as §1, §2

N#C/C(=C(/N)Sc1ccc(N)cc1)c1ccccc1C(F)(F)F [SL327] was tested, and the “normalized p-Erk levels in the hippocampus” value ([1]; PTPN11^D61G-expressing hippocampi, SL327 treatment) was “reverses increased Erk activation”, the “Erk activation in the hippocampus” value ([1]; control and AAV-PTPN11^D61G mice, SL327 32 mg/kg intraperitoneal) was “decreased Erk activation” and the mEPSC amplitudes [2] was “not significantly different among groups”. For the same compound, the mEPSC amplitudes [3] was “not significantly different among groups”.
